Measured values: patent publication US20110229461A1 (UCB, published 2011)
No constants are given. Whether binding was seen depends on the method and setting. Some entries that bind do so weakly or less than the wild type. One block for each binder: values may come before it.

The chains behind the UniProt entries cited, without tags or fusion partners. Residues count along the entry.
UniProt Q15116, residues 25-170: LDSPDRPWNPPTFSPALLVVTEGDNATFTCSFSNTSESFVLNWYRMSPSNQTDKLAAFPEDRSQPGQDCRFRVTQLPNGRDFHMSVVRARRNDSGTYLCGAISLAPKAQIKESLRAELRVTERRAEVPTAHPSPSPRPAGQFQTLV

Columns and labels:
[1] = biological target: human PD-1 (recombinant, titrated in BIAcore) (human) (UniProt Q15116); experiment: SPR BIAcore 3000; this graft is the exception (affinity not improved)
[2] = biological target: human PD-1 (recombinant, titrated in BIAcore) (human) (UniProt Q15116); experiment: SPR BIAcore 3000

binding [1]: binds
B1: 949 VK1 gL11 gH1a (antibody, V domains shown)
VH: EVQLVQSGAEVKKPGASVKVSCKAFGYTFTTYPIEWMRQAHGQGLEWIGNFHPYNDDTKYNEKFKGRVTMTVDKSTTTVYMELSSLRSEDTAVYYCARENYGSHGGFVYWGQGTLVTVS
VL: ENVLTQSPFSLSASVGDRVTITCRASSSVISSYLHWYQQKPAKAPKLWIYSTSNLASGVPDRFSGSGSGTSYTLTISSLQPEDFATYYCQQYNSYPLTFGGGTKVEIK
notes: Humanised; human kappa constant (Km3)

binding [2]: binds
B2: 949 VK3 gL11 gH1a (antibody, V domains shown)
VH: B1 VH
VL: ENVLTQSPGTLSLSPGERATLSCRASSSVISSYLHWYQQKPGQAPRLWIYSTSNLASGVPDRFSGSGSGTSYTLTISRLEPEDFATYYCQQYNSYPLTFGGGTKVEIK
notes: as for B1
